Results deposited as PubChem BioAssay AID1259308 (NCATS, 2017)
Aim: 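Candidate targets for better recombinant protein yield in mammalian cells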 (primary screen). System: human HEK293 embryonic kidney cells stably expressing firefly luciferase (HEK-CMV-Luc2-Hygro). Reagent: single siRNA against human genes, 0.8 pmol siRNA per well. Duration: 72 h. Measurement: 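Luciferase light (ONE-Glo) measured on one replicate plate set and viability (CellTiter-Glo) on the other, scaled to a negative control siRNA, with robust z-scores and luciferase per cell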. Scale: total luciferase, z-score: higher = more reporter protein produced. Rule for the call: 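Active when the median/MAD z-score for overall luciferase is greater than 3; a gene was taken forward for validation with new siRNAs if at least two of its three siRNAs passed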. Meaning of the calls: active = raised luciferase; inactive = no rise.
Here is one part, drawn at random, of about 59,000 reagents tested. Of all reagents, about 1,510 (2.6%) got an active call. 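Calls use total luciferase alone and ignore viability, so some active siRNAs may act by altering cell number.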 Reagents against one gene are numbered here. Not all columns of the deposit are shown.

target | reagent | total luciferase, z-score | activity call
CR2 (complement C3d receptor 2) | 1 | 1.32 | inactive
CR2 (complement C3d receptor 2) | 2 | -0.635 | inactive
CR2 (complement C3d receptor 2) | 3 | 0.278 | inactive
CELA2B (chymotrypsin like elastase 2B) | 1 | -0.0327 | inactive
CELA2B (chymotrypsin like elastase 2B) | 2 | -2.18 | inactive
CELA2B (chymotrypsin like elastase 2B) | 3 | 0.908 | inactive
AASDHPPT | 1 | -0.0185 | inactive
AASDHPPT | 2 | -1.17 | inactive
AASDHPPT | 3 | -0.391 | inactive
CDC25A (cell division cycle 25A) | 1 | 0.401 | inactive
CDC25A (cell division cycle 25A) | 2 | -0.252 | inactive
CDC25A (cell division cycle 25A) | 3 | 1.22 | inactive
METTL8 (methyltransferase 8, tRNA N3-cytidine) | 1 | 0.36 | inactive
METTL8 (methyltransferase 8, tRNA N3-cytidine) | 2 | 0.159 | inactive
METTL8 (methyltransferase 8, tRNA N3-cytidine) | 3 | -0.103 | inactive
FAM110D (family with sequence similarity 110 member D) | 1 | 0.681 | inactive
FAM110D (family with sequence similarity 110 member D) | 2 | -0.0286 | inactive
FAM110D (family with sequence similarity 110 member D) | 3 | 2 | inactive
DEAF1 (DEAF1 transcription factor) | 1 | -0.795 | inactive
DEAF1 (DEAF1 transcription factor) | 2 | 1.09 | inactive
DEAF1 (DEAF1 transcription factor) | 3 | -0.166 | inactive
DEFB110 (defensin beta 110) | 1 | 2.48 | inactive
DEFB110 (defensin beta 110) | 2 | 5.31 | active
DEFB110 (defensin beta 110) | 3 | -0.79 | inactive
DEFB110 (defensin beta 110) | 4 | -0.537 | inactive
DEFB110 (defensin beta 110) | 5 | -0.822 | inactive
DEFB110 (defensin beta 110) | 6 | 1.57 | inactive
RNASE6 (ribonuclease A family member 6) | 1 | 1.53 | inactive
RNASE6 (ribonuclease A family member 6) | 2 | -1.68 | inactive
RNASE6 (ribonuclease A family member 6) | 3 | -1.32 | inactive
LYSMD4 (LysM domain containing 4) | 1 | 0.827 | inactive
LYSMD4 (LysM domain containing 4) | 2 | -0.143 | inactive
LYSMD4 (LysM domain containing 4) | 3 | -0.436 | inactive
SLC39A13 | 1 | -0.491 | inactive
SLC39A13 | 2 | -1.27 | inactive
SLC39A13 | 3 | 0.288 | inactive
LRRC37BP1 (leucine rich repeat containing 37B pseudogene 1) | 1 | -0.587 | inactive
LRRC37BP1 (leucine rich repeat containing 37B pseudogene 1) | 2 | -0.293 | inactive
LRRC37BP1 (leucine rich repeat containing 37B pseudogene 1) | 3 | 1.61 | inactive
NBPF15 (NBPF member 15) | 1 | -1.2 | inactive
NBPF15 (NBPF member 15) | 2 | 2.14 | inactive
NBPF15 (NBPF member 15) | 3 | 0.699 | inactive
CNPY4 (canopy FGF signaling regulator 4) | 1 | -0.0675 | inactive
CNPY4 (canopy FGF signaling regulator 4) | 2 | 0.487 | inactive
CNPY4 (canopy FGF signaling regulator 4) | 3 | -0.464 | inactive
LETMD1 (LETM1 domain containing 1) | 1 | 1.02 | inactive
LETMD1 (LETM1 domain containing 1) | 2 | 0.264 | inactive
LETMD1 (LETM1 domain containing 1) | 3 | -1.83 | inactive
OAS3 (2'-5'-oligoadenylate synthetase 3) | 1 | 2.31 | inactive
OAS3 (2'-5'-oligoadenylate synthetase 3) | 2 | 2.3 | inactive
OAS3 (2'-5'-oligoadenylate synthetase 3) | 3 | -0.82 | inactive
ADM2 (adrenomedullin 2) | 1 | 0.15 | inactive
ADM2 (adrenomedullin 2) | 2 | -0.128 | inactive
ADM2 (adrenomedullin 2) | 3 | -0.788 | inactive
P3H3 (prolyl 3-hydroxylase 3) | 1 | 0.331 | inactive
P3H3 (prolyl 3-hydroxylase 3) | 2 | -0.144 | inactive
P3H3 (prolyl 3-hydroxylase 3) | 3 | 0.572 | inactive
SERHL (serine hydrolase like (pseudogene)) | 1 | -1.02 | inactive
SERHL (serine hydrolase like (pseudogene)) | 2 | -0.227 | inactive
SERHL (serine hydrolase like (pseudogene)) | 3 | -1.79 | inactive
GJA10 (gap junction protein alpha 10) | 1 | -0.881 | inactive
GJA10 (gap junction protein alpha 10) | 2 | -0.234 | inactive
GJA10 (gap junction protein alpha 10) | 3 | -0.874 | inactive
TMC2 (transmembrane channel like 2) | 1 | 1.85 | inactive
TMC2 (transmembrane channel like 2) | 2 | 0.102 | inactive
TMC2 (transmembrane channel like 2) | 3 | 0.886 | inactive
UBIAD1 (UbiA prenyltransferase domain containing 1) | 1 | 0.0315 | inactive
UBIAD1 (UbiA prenyltransferase domain containing 1) | 2 | -0.966 | inactive
UBIAD1 (UbiA prenyltransferase domain containing 1) | 3 | -0.556 | inactive
HIF1A (hypoxia inducible factor 1 subunit alpha) | 1 | 1.18 | inactive
HIF1A (hypoxia inducible factor 1 subunit alpha) | 2 | -0.622 | inactive
HIF1A (hypoxia inducible factor 1 subunit alpha) | 3 | -0.268 | inactive
PPIP5K2 (diphosphoinositol pentakisphosphate kinase 2) | 1 | -1.33 | inactive
PPIP5K2 (diphosphoinositol pentakisphosphate kinase 2) | 2 | -0.389 | inactive
PPIP5K2 (diphosphoinositol pentakisphosphate kinase 2) | 3 | -0.793 | inactive

Records above with an active call, once more:
target | reagent | total luciferase, z-score | activity call
DEFB110 (defensin beta 110) | 2 | 5.31 | active
